From US6878514B1, “Methods for identifying agents that inhibit serum aging factors and uses and compositions thereof” (Purdue Research Foundation, priority 1999, dated 2005)
At least one compound was matched to its structure with a doubt left.

Assays:
AR-NOX [1] = details: cited from earlier work
NOX from healthy cells [2] = target: T1, NOX from healthy cells (Homo sapiens, UniProt Q8TC92); details: cited from earlier work
T1 construct: from tissue; host or cells: human serum
T1 sequence (Q8TC92 1-643): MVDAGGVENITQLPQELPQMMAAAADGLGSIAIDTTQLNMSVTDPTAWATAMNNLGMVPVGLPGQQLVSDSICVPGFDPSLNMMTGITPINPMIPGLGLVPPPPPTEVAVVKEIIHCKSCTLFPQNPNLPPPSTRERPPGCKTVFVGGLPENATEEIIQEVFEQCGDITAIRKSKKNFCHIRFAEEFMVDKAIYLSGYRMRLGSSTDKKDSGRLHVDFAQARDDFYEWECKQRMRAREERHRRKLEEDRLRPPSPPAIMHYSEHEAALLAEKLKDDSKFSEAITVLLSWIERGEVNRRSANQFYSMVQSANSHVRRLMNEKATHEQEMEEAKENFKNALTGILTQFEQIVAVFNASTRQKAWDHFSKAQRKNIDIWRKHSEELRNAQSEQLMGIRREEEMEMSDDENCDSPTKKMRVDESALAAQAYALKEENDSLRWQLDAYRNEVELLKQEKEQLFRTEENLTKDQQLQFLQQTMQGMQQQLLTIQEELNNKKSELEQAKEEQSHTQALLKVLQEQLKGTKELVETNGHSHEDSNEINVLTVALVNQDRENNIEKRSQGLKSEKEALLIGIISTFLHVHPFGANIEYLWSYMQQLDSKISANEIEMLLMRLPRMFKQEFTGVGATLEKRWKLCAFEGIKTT

AR-NOX [3] = test: Oscillatory NADH oxidase activity of sera of aged patients; type: biochemical, human; details: retinoic acid 10 mM
NOX from healthy cells [4] = target: T1, NOX from healthy cells; test: Oscillatory NADH oxidase activity of sera of healthy individuals; type: biochemical; details: isoform with a 26 minute period

## CC1=C(/C=C/C(C)=C/C=C/C(C)=C/C(=O)O)C(C)(C)CCC1 [retinoic acid]
AR-NOX [1]
  Inhibition of AR-NOX: not inhibited
NOX from healthy cells [2]
  Inhibition of NOX from healthy cells: inhibited
AR-NOX [3]
  Inhibition of aging-related oscillatory NADH oxidase activity: resistant to inhibition
NOX from healthy cells [4]
  Inhibition of NOX isoform in sera of healthy individuals: appears to be inhibited
